# In the supplement of paper PMC9877034:
# Where a name gives a salt, the structure may show the parent alone. Whole data set: some 1,000 compounds, median “cFRET/donor change relative to DMSO, normalised to beta-lapachone positive control (supercomplex I-IV assembly)” near 0.18, cut for the lowest 2% near -1. Some of the results follow.
# System: C2C12 (NDUFB8-AcGFP / COX8A-DsRed-Monomer FRET reporter)
# Assay: cFRET/donor change relative to DMSO, normalised to beta-lapachone positive control (supercomplex I-IV assembly) (fraction of beta-lapachone effect); higher = more respiratory supercomplex assembly
# Details: 40 µM; 24 h
# Method: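 Cells were treated with 40 uM compound for 24 h and imaged on an IN Cell Analyzer 6000. Corrected FRET was divided by donor signal (cFRET/donor) and measured in two replicate experiments. The score is (mean cFRET/donor of compound - mean DMSO) / (mean beta-lapachone 40 uM - mean DMSO). Compounds flagged for prominent cell death, abnormal morphology or decreased cell number were excluded.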
row,SMILES,cFRET/donor change
1,C/C=C(/C)C(=O)O[C@H]1C(C)=C2[C@H]([C@@H]1OC(=O)CCCCCCC)[C@@](C)(OC(C)=O)C[C@H](OC(=O)CCC)[C@@]1(O)[C@H]2OC(=O)[C@@]1(C)O [Thapsigargin],0.0653
2,c1ccc2c(c1)OCC(C1=NCCN1)O2 (stereo not drawn) [Idazoxan hydrochloride],-0.861
3,CCCN1CCC[C@@H]2Cc3n[nH]cc3C[C@H]21 [(-)-Quinpirole hydrochloride],-0.238
4,CC(C)c1cccc(C(C)C)c1O [Propofol],0.289
5,OCc1cnc[nH]1 [4-Imidazolemethanol hydrochloride],0.055
6,O=C(O)CC[N+](=O)[O-] [3-Nitropropionic acid],0.571
7,CN1C[C@H](CNC(=O)OCc2ccccc2)C[C@@H]2c3cccc4c3c(cn4C)C[C@H]21 [Metergoline],0.515
8,CC(C)Oc1cccnc1N(C)C1CCN(Cc2ccccc2)CC1,0.414
9,CCCN(CCC)C1CCc2ccc(O)cc2C1 (racemic) [(±)-7-Hydroxy-DPAT hydrobromide],0.268
10,NCC1(CC(=O)O)CCCCC1 [Gabapentin],-0.025
11,CC(O)(CS(=O)(=O)c1ccc(F)cc1)C(=O)Nc1ccc(C#N)c(C(F)(F)F)c1 (stereo not drawn) [Bicalutamide (CDX)],0.549
12,Cc1ncsc1CCCl [Chlormethiazole hydrochloride],0.036
13,CCC1(c2ccc(N)cc2)CCC(=O)NC1=O (racemic) [(±)-p-Aminoglutethimide],-0.016
14,O=C(O)c1nn(Cc2ccc(Cl)cc2Cl)c2ccccc12 [Lonidamine],-0.0272
15,Cc1o[nH]c(=O)c1CC(N)C(=O)O (racemic) [(±)-AMPA hydrobromide],0.0791
16,CC[C@@H](CO)NC(=O)[C@@H]1C=C2c3cccc4[nH]cc(c34)C[C@H]2N(C)C1 [Methylergonovine maleate],0.273
17,CCC1(C2=NCCN2)Cc2ccccc2O1 (stereo not drawn) [Efaroxan hydrochloride],0.439
18,CCOC(=O)c1ncn2c1[C@@H]1CCCN1C(=O)c1cc(OC)ccc1-2,0.212
19,"C[N+]1(C)[C@@H]2CC(OC(=O)[C@H](CO)c3ccccc3)C[C@H]1[C@@H]1O[C@@H]12 (single isomer, unassigned; (-)) [(-)-Scopolamine methyl nitrate]",0.0188
20,COc1ccc2c(c1O)-c1cccc3c1[C@@H](C2)N(C)CC3 [R(-)-Apocodeine hydrochloride],0.979
21,O=c1[nH]oc2c1CCNC2 [THIP hydrochloride],0.0629
22,NC(Cc1cc(O)c(O)cc1O)C(=O)O (racemic) [6-Hydroxy-DL-DOPA],-0.134
23,"CN1CCc2cc(O)cc3c2[C@H]1Cc1ccc(O)c(O)c1-3 [R(-)-2,10,11-Trihydroxyaporphine hybrobromide]",1.29
24,Cn1c(CCCC(=O)O)nc2cc(N(CCCl)CCCl)ccc21 [Bendamustine hydrochloride],-0.232

row,SMILES,cFRET/donor change
1,O=C1CC[C@@]2(O)[C@H]3Cc4ccc(O)c5c4[C@@]2(CCN3CC2CC2)[C@H]1O5 [Naltrexone hydrochloride],0.268
2,CC(=O)[C@H]1CC[C@H]2[C@@H]3CC[C@H]4C[C@H](O)CC[C@]4(C)[C@H]3CC[C@]12C [5alpha-Pregnan-3alpha-ol-20-one],0.166
3,N[C@]1(C(=O)O)CC[C@H](C(=O)O)C1 (racemic) [trans-(±)-ACPD],0.0503
4,CC(NC(C)(C)C)C(=O)c1cccc(Cl)c1 (stereo not drawn) [Bupropion hydrochloride],0.231
5,CN1[C@@H]2C[C@@H](OC(=O)[C@H](CO)c3ccccc3)C[C@H]1[C@@H]1O[C@@H]12 [(-)-Scopolamine hydrobromide],0.275
6,CC(=O)[C@H]1CC[C@H]2[C@@H]3CC[C@H]4C[C@](C)(O)CC[C@]4(C)[C@H]3CC[C@]12C [Ganaxolone],0.393
7,NCC(CC(=O)O)c1ccc(Cl)cc1 (racemic) [(±)-Baclofen],-0.352
8,N[C@@H]1C[C@H]1c1ccccc1 [Tranylcypromine hydrochloride],0.38
9,C[C@@H]1O[C@H](C[N+](C)(C)C)C[C@H]1O (racemic) [(±)-Muscarine chloride],-0.0405
10,CP(=O)(O)C1=CCNCC1,-0.0291
11,NC(=O)c1cc(N2CC2)c([N+](=O)[O-])cc1[N+](=O)[O-],0.411
12,C=CCN1CC[C@]23c4c5ccc(O)c4O[C@H]2C(=O)CC[C@@]3(O)[C@H]1C5 [Naloxone hydrochloride],0.241
13,CN1CC[C@]2(CCN3CCc4c(oc5ccccc45)[C@@H]3C2)N(C)C1=O,0.551
14,N#CC(C#N)=Cc1ccc(O)c(O)c1 [Tyrphostin 23],0.0664
15,"COc1ccc2[nH]c3c(c2c1)CCNC3 [6-Methoxy-1,2,3,4-tetrahydro-9H-pyrido[3,4b] indole]",-0.133
16,Cc1cccc(C)c1NC(=O)CN1CCCC1=O [Nefiracetam],0.156
17,NC(=O)CI [Iodoacetamide],-0.0525
18,COC(=O)N1CCN(C(=O)Cc2ccc(Cl)c(Cl)c2)C(CN2CCCC2)C1 (stereo not drawn),-0.0482
19,CC(C)NC(C)Cc1ccc(I)cc1 (stereo not drawn) [Iofetamine hydrochloride],0.596
20,N=C(NCCC[C@H](N)C(=O)O)N[N+](=O)[O-] [NG-Nitro-L-arginine],0.111
21,CCCN(CCC)C1Cc2cc(OC)c(OC)cc2C1,0.0328
22,CC(=O)O[C@H]1C[C@@H]2CC[C@@H]3[C@H](CC[C@@]4(C)[C@H]3C[C@H]([N+]3(C)CCCCC3)[C@@H]4OC(C)=O)[C@@]2(C)C[C@@H]1[N+]1(C)CCCCC1 [Pancuronium bromide],-0.202
23,CN1CCc2cccc(Cl)c2CC1,0.279
24,COC(=O)[C@@H](N)CCCNC(=N)N[N+](=O)[O-] [NG-Nitro-L-arginine methyl ester hydrochloride],0.414

# Shown tab-delimited: two of the compounds above.
row	SMILES	cFRET/donor change
18	COC(=O)N1CCN(C(=O)Cc2ccc(Cl)c(Cl)c2)C(CN2CCCC2)C1 (stereo not drawn)	-0.0482
19	CC(C)NC(C)Cc1ccc(I)cc1 (stereo not drawn) [Iofetamine hydrochloride]	0.596
